Results on 14 targets are retold here after the supplement of paper PMC12067093, “Discovery and optimisation of a covalent ligand for TRIM25 and its application to targeted protein ubiquitination” (Chemical Science, 2025).

Amino acid sequences for entries named in this document (tags omitted). A change or cut given only in a name is not applied to a line headed by its entry.
UniProt Q8TDN6: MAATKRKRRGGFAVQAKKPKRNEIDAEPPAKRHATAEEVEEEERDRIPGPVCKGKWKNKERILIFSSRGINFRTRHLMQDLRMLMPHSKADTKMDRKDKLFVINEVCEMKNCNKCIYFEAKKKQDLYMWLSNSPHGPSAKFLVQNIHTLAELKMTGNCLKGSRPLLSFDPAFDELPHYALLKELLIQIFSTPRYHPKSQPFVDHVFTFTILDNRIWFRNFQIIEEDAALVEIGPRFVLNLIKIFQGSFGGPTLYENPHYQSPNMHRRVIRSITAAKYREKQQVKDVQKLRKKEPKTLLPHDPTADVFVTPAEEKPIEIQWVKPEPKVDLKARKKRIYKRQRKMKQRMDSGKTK
UniProt P27708: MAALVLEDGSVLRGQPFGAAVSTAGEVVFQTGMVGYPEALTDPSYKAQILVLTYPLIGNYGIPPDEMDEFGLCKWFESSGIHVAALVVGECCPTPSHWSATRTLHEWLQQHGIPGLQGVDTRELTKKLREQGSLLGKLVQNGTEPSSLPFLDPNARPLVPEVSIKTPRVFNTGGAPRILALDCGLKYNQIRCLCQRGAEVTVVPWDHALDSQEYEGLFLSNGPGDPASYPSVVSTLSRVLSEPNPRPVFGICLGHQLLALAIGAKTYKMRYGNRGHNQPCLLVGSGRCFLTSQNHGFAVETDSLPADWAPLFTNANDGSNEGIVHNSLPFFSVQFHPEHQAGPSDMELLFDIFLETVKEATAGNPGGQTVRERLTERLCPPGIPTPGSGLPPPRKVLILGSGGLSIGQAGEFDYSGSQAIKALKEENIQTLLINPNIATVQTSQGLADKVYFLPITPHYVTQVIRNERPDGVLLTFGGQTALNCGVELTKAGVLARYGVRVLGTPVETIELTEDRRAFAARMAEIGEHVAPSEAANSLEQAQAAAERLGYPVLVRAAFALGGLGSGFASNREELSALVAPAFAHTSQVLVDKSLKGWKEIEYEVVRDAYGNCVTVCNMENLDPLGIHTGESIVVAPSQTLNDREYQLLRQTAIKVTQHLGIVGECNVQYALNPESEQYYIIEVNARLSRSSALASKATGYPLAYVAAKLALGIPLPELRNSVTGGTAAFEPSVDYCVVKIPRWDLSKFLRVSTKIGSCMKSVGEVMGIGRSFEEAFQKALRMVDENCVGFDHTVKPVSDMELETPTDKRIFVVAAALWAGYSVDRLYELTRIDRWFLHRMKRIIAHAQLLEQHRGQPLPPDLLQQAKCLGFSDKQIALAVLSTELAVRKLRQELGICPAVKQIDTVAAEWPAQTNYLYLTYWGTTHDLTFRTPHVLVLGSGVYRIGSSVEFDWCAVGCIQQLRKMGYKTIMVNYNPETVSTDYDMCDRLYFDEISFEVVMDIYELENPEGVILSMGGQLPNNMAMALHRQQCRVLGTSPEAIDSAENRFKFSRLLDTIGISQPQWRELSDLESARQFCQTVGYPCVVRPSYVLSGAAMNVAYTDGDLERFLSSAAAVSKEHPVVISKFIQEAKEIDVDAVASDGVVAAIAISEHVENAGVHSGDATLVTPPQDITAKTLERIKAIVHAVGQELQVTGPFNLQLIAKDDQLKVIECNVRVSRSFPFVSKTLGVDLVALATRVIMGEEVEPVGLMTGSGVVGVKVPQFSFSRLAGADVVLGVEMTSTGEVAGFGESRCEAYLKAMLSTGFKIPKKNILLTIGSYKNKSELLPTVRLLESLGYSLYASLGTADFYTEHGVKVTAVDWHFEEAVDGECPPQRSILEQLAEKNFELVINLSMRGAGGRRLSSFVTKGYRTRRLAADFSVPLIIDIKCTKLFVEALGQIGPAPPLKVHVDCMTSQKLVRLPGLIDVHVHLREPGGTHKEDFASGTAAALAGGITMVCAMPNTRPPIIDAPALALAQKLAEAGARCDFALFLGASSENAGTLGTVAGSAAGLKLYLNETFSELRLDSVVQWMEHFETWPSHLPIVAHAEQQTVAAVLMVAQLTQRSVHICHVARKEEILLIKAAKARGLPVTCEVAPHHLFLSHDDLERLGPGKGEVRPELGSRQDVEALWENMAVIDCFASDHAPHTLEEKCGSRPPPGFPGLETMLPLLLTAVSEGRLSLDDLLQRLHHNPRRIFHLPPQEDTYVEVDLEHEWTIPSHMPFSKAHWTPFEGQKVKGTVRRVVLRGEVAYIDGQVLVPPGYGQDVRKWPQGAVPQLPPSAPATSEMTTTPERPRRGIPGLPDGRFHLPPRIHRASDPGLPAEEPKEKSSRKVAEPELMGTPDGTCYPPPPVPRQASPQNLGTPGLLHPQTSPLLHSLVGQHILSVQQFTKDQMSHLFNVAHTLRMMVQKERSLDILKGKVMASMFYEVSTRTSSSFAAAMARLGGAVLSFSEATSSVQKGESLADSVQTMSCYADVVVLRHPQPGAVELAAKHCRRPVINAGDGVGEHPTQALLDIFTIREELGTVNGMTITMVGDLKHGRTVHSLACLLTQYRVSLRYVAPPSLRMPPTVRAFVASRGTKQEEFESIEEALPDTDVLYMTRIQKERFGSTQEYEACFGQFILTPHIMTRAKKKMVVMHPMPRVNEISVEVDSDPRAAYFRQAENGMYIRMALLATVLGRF
UniProt P38398, whole entry, looked up: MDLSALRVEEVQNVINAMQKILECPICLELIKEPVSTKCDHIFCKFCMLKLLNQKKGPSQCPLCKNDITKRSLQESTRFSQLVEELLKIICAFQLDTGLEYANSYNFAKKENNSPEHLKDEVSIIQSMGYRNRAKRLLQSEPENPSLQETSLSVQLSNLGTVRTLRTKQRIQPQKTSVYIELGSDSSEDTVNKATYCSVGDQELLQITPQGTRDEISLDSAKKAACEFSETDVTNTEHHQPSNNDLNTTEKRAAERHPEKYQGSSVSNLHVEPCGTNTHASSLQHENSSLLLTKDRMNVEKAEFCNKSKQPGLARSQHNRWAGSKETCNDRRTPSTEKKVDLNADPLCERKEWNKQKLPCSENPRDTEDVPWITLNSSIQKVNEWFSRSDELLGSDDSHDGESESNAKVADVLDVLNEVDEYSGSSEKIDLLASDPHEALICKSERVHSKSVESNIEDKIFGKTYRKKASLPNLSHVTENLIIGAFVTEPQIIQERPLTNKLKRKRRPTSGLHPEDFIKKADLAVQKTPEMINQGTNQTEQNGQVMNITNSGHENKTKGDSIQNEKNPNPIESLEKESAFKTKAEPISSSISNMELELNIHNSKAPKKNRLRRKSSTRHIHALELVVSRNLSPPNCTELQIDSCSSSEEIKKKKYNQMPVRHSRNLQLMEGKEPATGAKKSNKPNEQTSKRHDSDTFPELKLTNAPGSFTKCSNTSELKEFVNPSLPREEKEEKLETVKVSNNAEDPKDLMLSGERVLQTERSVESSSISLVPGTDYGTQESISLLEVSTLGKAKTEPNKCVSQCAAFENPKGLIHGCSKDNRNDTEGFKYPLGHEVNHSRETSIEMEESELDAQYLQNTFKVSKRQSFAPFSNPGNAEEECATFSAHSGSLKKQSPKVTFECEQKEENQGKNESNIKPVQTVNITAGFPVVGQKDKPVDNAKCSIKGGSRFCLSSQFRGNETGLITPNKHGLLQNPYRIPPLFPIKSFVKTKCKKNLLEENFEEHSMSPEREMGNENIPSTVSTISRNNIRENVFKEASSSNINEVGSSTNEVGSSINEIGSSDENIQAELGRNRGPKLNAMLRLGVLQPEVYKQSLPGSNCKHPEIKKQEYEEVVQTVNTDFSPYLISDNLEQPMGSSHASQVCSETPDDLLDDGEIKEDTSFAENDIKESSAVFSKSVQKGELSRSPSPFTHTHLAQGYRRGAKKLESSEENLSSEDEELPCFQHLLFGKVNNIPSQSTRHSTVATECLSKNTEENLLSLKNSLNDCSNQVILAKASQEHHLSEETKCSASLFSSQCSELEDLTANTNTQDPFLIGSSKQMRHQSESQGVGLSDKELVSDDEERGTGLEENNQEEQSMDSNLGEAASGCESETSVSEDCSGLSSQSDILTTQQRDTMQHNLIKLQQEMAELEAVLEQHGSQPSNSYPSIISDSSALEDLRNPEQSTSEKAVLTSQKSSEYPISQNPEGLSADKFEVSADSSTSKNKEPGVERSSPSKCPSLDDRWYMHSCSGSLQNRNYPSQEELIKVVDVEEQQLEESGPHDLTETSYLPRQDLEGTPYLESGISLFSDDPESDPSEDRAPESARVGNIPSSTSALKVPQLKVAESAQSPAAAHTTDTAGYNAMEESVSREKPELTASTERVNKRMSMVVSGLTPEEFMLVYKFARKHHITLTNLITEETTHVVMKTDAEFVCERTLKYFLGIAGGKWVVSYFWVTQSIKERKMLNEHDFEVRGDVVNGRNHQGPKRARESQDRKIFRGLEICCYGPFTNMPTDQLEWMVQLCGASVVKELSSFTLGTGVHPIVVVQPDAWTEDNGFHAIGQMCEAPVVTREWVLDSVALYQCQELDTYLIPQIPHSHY
UniProt O95696: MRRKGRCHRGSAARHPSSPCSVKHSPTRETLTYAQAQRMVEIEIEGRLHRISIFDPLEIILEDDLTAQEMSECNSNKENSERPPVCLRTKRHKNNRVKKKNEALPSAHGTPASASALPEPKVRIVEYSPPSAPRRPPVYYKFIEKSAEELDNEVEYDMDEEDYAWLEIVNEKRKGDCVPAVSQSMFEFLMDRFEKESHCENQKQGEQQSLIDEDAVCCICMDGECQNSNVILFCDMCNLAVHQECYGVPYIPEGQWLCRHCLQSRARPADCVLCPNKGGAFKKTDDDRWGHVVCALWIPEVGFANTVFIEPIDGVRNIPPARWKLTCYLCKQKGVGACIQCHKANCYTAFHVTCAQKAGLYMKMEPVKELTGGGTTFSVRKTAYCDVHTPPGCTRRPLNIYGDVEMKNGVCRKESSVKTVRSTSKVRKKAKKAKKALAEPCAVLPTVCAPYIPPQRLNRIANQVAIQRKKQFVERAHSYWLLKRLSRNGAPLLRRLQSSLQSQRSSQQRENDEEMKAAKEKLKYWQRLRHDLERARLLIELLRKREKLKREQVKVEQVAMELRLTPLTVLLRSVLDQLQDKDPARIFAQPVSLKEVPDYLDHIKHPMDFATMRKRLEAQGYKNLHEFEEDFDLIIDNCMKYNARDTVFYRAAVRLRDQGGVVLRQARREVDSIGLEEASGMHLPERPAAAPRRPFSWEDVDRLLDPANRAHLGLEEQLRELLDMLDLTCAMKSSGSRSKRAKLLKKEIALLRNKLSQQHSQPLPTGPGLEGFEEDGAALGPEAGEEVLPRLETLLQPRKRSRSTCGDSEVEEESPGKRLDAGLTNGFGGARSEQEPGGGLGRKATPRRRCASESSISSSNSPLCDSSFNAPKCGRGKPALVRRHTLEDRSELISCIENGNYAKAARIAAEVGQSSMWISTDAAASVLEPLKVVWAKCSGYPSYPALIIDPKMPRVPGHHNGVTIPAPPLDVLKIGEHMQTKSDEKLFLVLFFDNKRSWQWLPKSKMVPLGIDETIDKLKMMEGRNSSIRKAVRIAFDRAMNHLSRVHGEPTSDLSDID

This is one part of the list.

Compound in this assay: CC1Cc2ccccc2N1C(=O)C1CCCN(C1)C(=O)CCl (mixture of isomers) [TRIM25 ligand 11 (diastereomer mixture)]
The assay is described as follows: probe-labelled cysteine peptide fold change vs DMSO (competition) (log2 fold change); higher = less target engagement (more negative = stronger competition). The settings on record: THP-1, incubation time: 4 h.
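Also: competitive chemoproteomic profiling in live THP-1 cells with an iodoacetamide desthiobiotin (IA-DTB) probe, comparing probe-labelled peptide intensities in compound-treated cells against DMSO-treated controls.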

“BRIX1_Q8TDN6_52_HATAEEVEEEERDRIPGPVCK (UniProt Q8TDN6)”: the “probe-labelled cysteine peptide fold change” value (10 µM) was -0.0245 and the “probe-labelled cysteine peptide fold change” value (50 µM) was -0.238.
For “CAD_P27708_1529_CDFALFLGASSENAGTLGTVAGSAAGLK (UniProt P27708)” the same measures were 0.0356 and -0.128.
In the case of “BUD31_P41223_102_QGYENLCCLR (UniProt P41223)”, the “probe-labelled cysteine peptide fold change” value is, setting by setting: (10 µM) 0.0949; (50 µM) 0.0889.
“BST1_Q10588_271+280_LLQCVDHSTHPDCALK (UniProt Q10588)”: the “probe-labelled cysteine peptide fold change” value reads like this: (10 µM) 0.0735; (50 µM) -0.00153.
As to “BRCA1_P38398_348_KVDLNADPLCER (UniProt P38398)”, the “probe-labelled cysteine peptide fold change” value was -0.121 (10 µM) and -0.3 (50 µM).
Taken in the same sequence, the figures for “CAD_P27708_1682_QDVEALWENMAVIDCFASDHAPHTLEEK (UniProt P27708)” were -0.0372 and -0.318.
Taken in the same sequence, the figures for “CAND1_Q86VP6_413_QTRPVQSWLCDPDAMEQGETPLTMLQSQVPNIVK (UniProt Q86VP6)” were 0.0295 and -0.224.
Taken in the same sequence, the figures for “BRAF_P15056_696_LMAECLK (UniProt P15056)” were 0.0576 and 0.00871.
On to “C8orf82_Q6P1X6_98_YEAAFPFLSPCGR (UniProt Q6P1X6)”, for which the “probe-labelled cysteine peptide fold change” value is, setting by setting: (10 µM) -0.0198; (50 µM) 0.0172.
Take “C16orf62_Q7Z3J2_277_ETCLNWFFK (UniProt Q7Z3J2)”: the “probe-labelled cysteine peptide fold change” value was found to be 0.0325 (10 µM) and 0.136 (50 µM).
Taken in the same sequence, the figures for “BRD1_O95696_199_ESHCENQK (UniProt O95696)” were -0.101 and -0.027.
For “CABIN1_Q9Y6J0_1573_DVLLGSSIPWQQLQHMPAQGLFCER (UniProt Q9Y6J0)” the same measures were 0.104 and -0.0632.
On to “BTBD10_Q9BSF8_86_TESQLTPCIR (UniProt Q9BSF8)”, for which the “probe-labelled cysteine peptide fold change” value runs as follows: (10 µM) -0.149; (50 µM) -0.433.
With “BRCA1_P38398_1513_WYMHSCSGSLQNR (UniProt P38398)”, the “probe-labelled cysteine peptide fold change” value by setting is: (10 µM) 0.0311; (50 µM) -0.124.
